# Laboratory results reported in PMC7819943, “Rice protein-binding microarrays: a tool to detect cis-acting elements near promoter regions in rice”.
# By UniProt entry, the sequences of proteins in these tests, tags left out.
# UniProt Q0JBA9, entry or part of it: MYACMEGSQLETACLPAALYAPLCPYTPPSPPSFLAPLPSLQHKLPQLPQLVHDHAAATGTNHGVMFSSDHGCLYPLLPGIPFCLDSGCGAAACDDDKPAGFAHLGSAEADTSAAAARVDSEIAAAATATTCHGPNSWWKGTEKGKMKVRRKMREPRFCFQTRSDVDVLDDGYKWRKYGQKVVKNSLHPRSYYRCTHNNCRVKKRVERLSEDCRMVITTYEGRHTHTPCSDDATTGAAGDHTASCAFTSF
# The list shows a part of the results.
# Target: OsWRKY34 (Oryza sativa, UniProt Q0JBA9 1-250)
# Assay: protein-binding microarray (RPBM); PBS, 2% BSA, 51.3 ng/ul salmon testes DNA, 50 uM zinc acetate, 200 nM TF, 25 C, 1 h; high values mean tight binding
# Conditions: protein: recombinant; tags: N-terminal polyhistidine and DsRed monomer fusion (pET32a); label: CyDye5-dUTP incorporated in the synthesized complementary strand; 3' TTTTT single-stranded linker to array surface; dsDNA, one strand shown
# Summary of the method: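 For the binding signal, per-feature fluorescence intensity was read in arbitrary units on an Axon 4000B scanner. Before scanning, a 2% BSA-blocked custom Agilent array made double-stranded with Cy5-dUTP was washed after 1 h at 25 °C with 200 nM protein and 50 µM zinc acetate. The proteins were Ni–NTA-purified transcription factors with N-terminal polyhistidine and DsRed fusions, expressed in E. coli BL21-CodonPlus.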
row,Sequence,binding signal
1,GTCCGCCGTATCGGCGTTTACCGTTTCTTCTTTGCCATGTCGGAGTCACCTAGTGCAG,8140 fluorescence intensity (a.u.)
2,TAATTCCTCGCACAGTAATCTGTCTTCCACTTCACCTGCTCGGAGTCACCTAGTGCAG,12100 fluorescence intensity (a.u.)
3,ACAAATGGTCAAACGTTGATAAAAAAGTCAACGGCGTCATCGGAGTCACCTAGTGCAG,20600 fluorescence intensity (a.u.)
4,GTAAAGGTTTGGTAGGGGAGCAGGTAATGGATTGATTGCACGGAGTCACCTAGTGCAG,12100 fluorescence intensity (a.u.)
5,TGTTTATTTCGTTTTCCGCGCGCACGTTTCCCAAACTATTCGGAGTCACCTAGTGCAG,12500 fluorescence intensity (a.u.)
6,TGCATAACCATTTTTTTTCTCTAACGGCTTACAAGTTCTACGGAGTCACCTAGTGCAG,8230 fluorescence intensity (a.u.)
7,GGTTGGTGTGGACCTTGCCCATTGTGAAACTTTGGTCAAACGGAGTCACCTAGTGCAG,8070 fluorescence intensity (a.u.)
8,TGTTGGTTACTGGGCTTTCTTATTGATGTTTCAGGTTGATCGGAGTCACCTAGTGCAG,9150 fluorescence intensity (a.u.)
9,TTCGAAATGTTTAACGCCGTTGACTTTTTATCATATGTTTCGGAGTCACCTAGTGCAG,35500 fluorescence intensity (a.u.)
10,CTAACAGAACATCCATTTCACCACACCCACTTGTTCAATGCGGAGTCACCTAGTGCAG,11000 fluorescence intensity (a.u.)
11,TAAGTTGGAGGGTGCGTTCTATCCGGTCTTGTGGTCAACACGGAGTCACCTAGTGCAG,8040 fluorescence intensity (a.u.)
12,TTCTTCTCTGGTCTCCCCTGTGTGTTGCTGTTCTATTTCCCGGAGTCACCTAGTGCAG,9230 fluorescence intensity (a.u.)
13,ATTATGACTGGTTTTGGTTAGTTGGGTGACGCCGGATATCCGGAGTCACCTAGTGCAG,10600 fluorescence intensity (a.u.)
14,GCATCTCCATCTATATGCTCTATTTCAAGTCTATCACAATCGGAGTCACCTAGTGCAG,8660 fluorescence intensity (a.u.)
15,ATCTGTCATCCTTTCTTCCCTCTTGCTTTGATAGAAACAGCGGAGTCACCTAGTGCAG,11600 fluorescence intensity (a.u.)
16,TGTTCCTCGCGATTGCATTTTGGTTCCTTGTTCATATATGCGGAGTCACCTAGTGCAG,10700 fluorescence intensity (a.u.)
17,TCTCTCTTCTCTTGAGCATCCTTGTTGTGTTCTACACTTGCGGAGTCACCTAGTGCAG,8040 fluorescence intensity (a.u.)
18,CCCAACTTTCCCCTTTGCTACAGTAGCTCCTTCTTCTTCTCGGAGTCACCTAGTGCAG,11100 fluorescence intensity (a.u.)
19,GTCCGTGTGTTGGAGCAGTCGGTGCGTGGGTGGTGGTCTTCGGAGTCACCTAGTGCAG,10500 fluorescence intensity (a.u.)
20,AATTCGTATTTTTTTCCTTAACTCAATGTTACTACTACTTCGGAGTCACCTAGTGCAG,8750 fluorescence intensity (a.u.)
21,TGTGAGATCAGGGACTCTTTTACCATTTCTTTCTTGCTTTCGGAGTCACCTAGTGCAG,12600 fluorescence intensity (a.u.)

# Some of the entries so far, with bars between the fields:
row | Sequence | binding signal
3 | ACAAATGGTCAAACGTTGATAAAAAAGTCAACGGCGTCATCGGAGTCACCTAGTGCAG | 20600 fluorescence intensity (a.u.)
4 | GTAAAGGTTTGGTAGGGGAGCAGGTAATGGATTGATTGCACGGAGTCACCTAGTGCAG | 12100 fluorescence intensity (a.u.)
5 | TGTTTATTTCGTTTTCCGCGCGCACGTTTCCCAAACTATTCGGAGTCACCTAGTGCAG | 12500 fluorescence intensity (a.u.)
6 | TGCATAACCATTTTTTTTCTCTAACGGCTTACAAGTTCTACGGAGTCACCTAGTGCAG | 8230 fluorescence intensity (a.u.)
7 | GGTTGGTGTGGACCTTGCCCATTGTGAAACTTTGGTCAAACGGAGTCACCTAGTGCAG | 8070 fluorescence intensity (a.u.)
8 | TGTTGGTTACTGGGCTTTCTTATTGATGTTTCAGGTTGATCGGAGTCACCTAGTGCAG | 9150 fluorescence intensity (a.u.)
9 | TTCGAAATGTTTAACGCCGTTGACTTTTTATCATATGTTTCGGAGTCACCTAGTGCAG | 35500 fluorescence intensity (a.u.)
10 | CTAACAGAACATCCATTTCACCACACCCACTTGTTCAATGCGGAGTCACCTAGTGCAG | 11000 fluorescence intensity (a.u.)
11 | TAAGTTGGAGGGTGCGTTCTATCCGGTCTTGTGGTCAACACGGAGTCACCTAGTGCAG | 8040 fluorescence intensity (a.u.)
12 | TTCTTCTCTGGTCTCCCCTGTGTGTTGCTGTTCTATTTCCCGGAGTCACCTAGTGCAG | 9230 fluorescence intensity (a.u.)
13 | ATTATGACTGGTTTTGGTTAGTTGGGTGACGCCGGATATCCGGAGTCACCTAGTGCAG | 10600 fluorescence intensity (a.u.)

# Following part.

row,Sequence,binding signal
1,GACTTCTCTTCATCGTCCGCCTCCTCCGCCGATCACCGCGCGGAGTCACCTAGTGCAG,10900 fluorescence intensity (a.u.)
2,TCCTGCTCTAGCCACTCATACCACCTTTGTTTTGTTGTTTCGGAGTCACCTAGTGCAG,8050 fluorescence intensity (a.u.)
3,CTCTTGGACACTAGTTAAGCAAACAGTACATTTGTTTCGTCGGAGTCACCTAGTGCAG,8120 fluorescence intensity (a.u.)
4,CAAACCTTGGACCTATCATACTGGTGTCAAGCGTTTCTTCCGGAGTCACCTAGTGCAG,9490 fluorescence intensity (a.u.)
5,TTTTTTTTTCTTTTTTGAACTCTCTACGCGTCATTTTTTCCGGAGTCACCTAGTGCAG,8590 fluorescence intensity (a.u.)
6,CTCTGCAACCTGCCGTCACCGCCACTACTCAACTCCCTTTCGGAGTCACCTAGTGCAG,11100 fluorescence intensity (a.u.)
7,AGGAAGCAACCGGCCAGCCAGCGGTTTGGTTTGGTTTGACCGGAGTCACCTAGTGCAG,9200 fluorescence intensity (a.u.)
8,CTCTCCCACGCGCTCTCTCCTCCCTCAGCTCGCCCAAAAACGGAGTCACCTAGTGCAG,9140 fluorescence intensity (a.u.)
9,ATATCCCATTCCCACCATTGTTTCTTCCAAGCATATTATCCGGAGTCACCTAGTGCAG,11800 fluorescence intensity (a.u.)
10,ATTGTTTTTATAGGGGAGGGGAGGCGGGATCGAGCCCGGGCGGAGTCACCTAGTGCAG,15100 fluorescence intensity (a.u.)
11,GAACACCTGGTATGCTATACACATAATATGCTACTACAATCGGAGTCACCTAGTGCAG,8620 fluorescence intensity (a.u.)
12,GCAATTTTCGTTTTTGTCACCTGAACACATTGATCATTTTCGGAGTCACCTAGTGCAG,10200 fluorescence intensity (a.u.)
13,ACTGATTAAACTTTTTCACAAATCTGGTATCATTTTTATACGGAGTCACCTAGTGCAG,9090 fluorescence intensity (a.u.)
14,CATCACTACCAAATTCGGCTGATCATTCATGCTTTCCATTCGGAGTCACCTAGTGCAG,13600 fluorescence intensity (a.u.)
15,ACACACACAAACTTCCAACTTTTCTGTCGCATCGTTCCAACGGAGTCACCTAGTGCAG,9840 fluorescence intensity (a.u.)
16,CCGGATAATTGTCATTTCTCTGCCTTTTTTATACTAGTCCCGGAGTCACCTAGTGCAG,12100 fluorescence intensity (a.u.)
17,ATTTAGCTCTTGTATTTTTTTATATTAGTATTTTAATATACGGAGTCACCTAGTGCAG,8250 fluorescence intensity (a.u.)
18,AGCAGTACAGCCTTCGACCATCCTCACTCTGTTTCCACTTCGGAGTCACCTAGTGCAG,8680 fluorescence intensity (a.u.)
19,TGGTACCCGTCAAATGTCATCCATGTCGCTTCACTTTGCACGGAGTCACCTAGTGCAG,12800 fluorescence intensity (a.u.)
20,GGCTTTAGTGTTCAGTTAGGATGTGCGTACCCGCCCCTTCCGGAGTCACCTAGTGCAG,8770 fluorescence intensity (a.u.)
21,CACACAGCCGCCCTTGCCGACCGCCACCGCCGCAACCGCACGGAGTCACCTAGTGCAG,9780 fluorescence intensity (a.u.)
